# Data published in the supplement of paper PMC3334620.
# Whole data set: some 33,000 sequences, median “E-score (-0.5 to 0.5)” near -0.016, cut for the highest 2% near 0.3. The list shows a part of the results.
# Molecular target: T1, Yer184c (UniProt P39961)
# T1 sequence: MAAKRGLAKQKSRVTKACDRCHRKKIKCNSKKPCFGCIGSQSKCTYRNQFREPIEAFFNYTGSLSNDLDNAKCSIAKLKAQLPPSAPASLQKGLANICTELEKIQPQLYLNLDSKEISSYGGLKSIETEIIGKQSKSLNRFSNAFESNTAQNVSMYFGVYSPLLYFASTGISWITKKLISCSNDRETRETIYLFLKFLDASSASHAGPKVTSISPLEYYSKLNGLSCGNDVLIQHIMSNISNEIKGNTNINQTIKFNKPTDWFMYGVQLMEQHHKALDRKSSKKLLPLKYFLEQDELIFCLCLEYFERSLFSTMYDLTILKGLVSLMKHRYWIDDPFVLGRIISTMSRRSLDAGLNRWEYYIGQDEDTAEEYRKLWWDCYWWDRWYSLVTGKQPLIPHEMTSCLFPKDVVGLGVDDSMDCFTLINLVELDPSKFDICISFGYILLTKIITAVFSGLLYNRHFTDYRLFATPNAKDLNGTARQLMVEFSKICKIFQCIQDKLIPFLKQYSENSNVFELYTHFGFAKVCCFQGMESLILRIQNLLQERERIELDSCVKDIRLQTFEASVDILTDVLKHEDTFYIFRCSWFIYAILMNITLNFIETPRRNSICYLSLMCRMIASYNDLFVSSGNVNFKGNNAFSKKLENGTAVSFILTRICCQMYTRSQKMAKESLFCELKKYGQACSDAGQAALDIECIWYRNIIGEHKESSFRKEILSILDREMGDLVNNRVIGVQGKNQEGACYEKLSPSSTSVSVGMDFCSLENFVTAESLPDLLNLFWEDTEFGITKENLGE
# Assay: PBM E-score (8-mer binding enrichment) (E-score (-0.5 to 0.5)); higher = stronger / more preferred TF binding
# Conditions: protein concentration: 100 nM; construct: GST-full length
# Procedure: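 Universal 'all 10-mer' protein binding microarrays (Agilent AMADID 015681) probed with GST-tagged S. cerevisiae TFs (full-length or DBD) made by in vitro transcription/translation (PURExpress), about 100-200 nM. Bound TF was detected with fluorescent anti-GST. Each ungapped 8-mer (which stands for itself and its reverse complement) is scored by the PBM enrichment score (E-score), a modified Wilcoxon-Mann-Whitney statistic from -0.5 to +0.5, computed with the Universal PBM Analysis Suite. Scale: above 0.35 generally sequence-specific binding.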
row,Sequence,PBM E-score
1,CAAACTCA,-0.0219
2,CCCCGCCA,0.0177
3,AGTATGCG,-0.0901
4,CAGTTATG,-0.0637
5,AGGCGTCG,-0.0441
6,AAATAATA,0.276
7,AACGTGCT,-0.258
8,GCACCCGA,0.0984
9,AGACTTAT,-0.0647
10,AGCGGTTG,-0.00156
11,ACCAACGG,0.0515
12,CGGCAGAC,0.102
13,ATGGTGCC,-0.117
14,AGCAGGGG,-0.28
15,GGACCCGA,0.064
16,GTGACAAA,-0.0189
17,TAAATACA,0.137
18,TCGTGAAA,0.022
19,TGTGCTAA,0.252
20,GGACTTTA,0.156
21,AACTCTCG,-0.0335
22,AACCTTAG,-0.0918
23,GCACTAAC,-0.084
24,GAAAGGGA,-0.0492

row,Sequence,PBM E-score
1,AGCGGCTG,-0.00263
2,AGCACGAC,-0.212
3,AATTTTGT,0.207
4,AATTCAGC,-0.0404
5,ATCCTGGC,-0.0823
6,CACAGTCC,-0.225
7,CTGTGCTC,0.141
8,GAACTCAA,0.0685
9,CGACTTGA,-0.00564
10,TGACAGCA,0.0714
11,ACGACGTG,-0.243
12,CACACTAG,-0.0414
13,GGCTACAA,-0.0116
14,ACGAATGA,0.189
15,AATCGGAC,0.152
16,CCACTGTA,-0.0881
17,ACTGAGCG,-0.147
18,GGCGTGAA,-0.0177
19,CAGCGGCA,-0.0167
20,GCGTATCA,0.0138
21,AAGTCCAC,-0.176
22,ACCAGTGA,-0.131
23,GAATTGAA,0.176
24,CTAGCCTC,-0.212

row,Sequence,PBM E-score
1,TACTTACA,0.0552
2,TAATGAAA,0.211
3,AGGACATC,0.13
4,CAGGCGAG,-0.203
5,ATGGTGGG,-0.243
6,CGCGCAGA,0.171
7,GTTCAAGA,0.0788
8,GCCTACCC,-0.254
9,ATCGGAAA,0.344
10,GCCCTACC,-0.21
11,CCGCCGTC,-0.00239
12,ATGGAGCA,0.0234
13,AACTCCTC,-0.0649
14,GCGGCATA,0.115
15,ACCCAAAA,0.0213
16,CAAGGCAA,-0.0285
17,GGTACGTA,-0.179
18,TATATACA,0.164
19,ACCCGGCG,0.198
20,AGCAGACT,0.0244
21,CCATATCC,-0.166
22,AGGGCGAT,-0.247
23,GCCTTCGC,-0.111
24,CGTGCGAA,0.121

# Some of the entries so far, bar-delimited:
row | Sequence | PBM E-score
3 | AGTATGCG | -0.0901
12 | CGGCAGAC | 0.102
4 | AATTCAGC | -0.0404
12 | CACACTAG | -0.0414
12 | ATGGAGCA | 0.0234

# Next records:

row,Sequence,PBM E-score
1,ACAGGCTG,-0.272
2,ACGGGAAA,0.159
3,GACAAGGC,-0.171
4,AATAACTG,0.0163
5,GCTCGAGC,0.101
6,CTATTTCC,0.233
7,CAGACTGA,0.0471
8,CACACCCC,-0.283
9,ACATACGT,-0.133
10,ATAGGTCA,0.099
11,AGGGGGTG,-0.288
12,CGCCTGAA,0.115
13,GAATTTAC,0.152
14,ACAATGAC,-0.123
15,TATTAACA,0.239
16,AGAAGTGG,-0.142
17,CACGATGG,-0.222
18,AATGCGAG,0.00618
19,GCACCTAA,0.0422
20,AGTCGGTG,-0.151
21,AAGGTAAA,0.118
22,CGCGTCGC,-0.0204
